The assay concerns SOD1-G93A mice. Conditions: n=5-6.

Read-outs that look alike come from different tables or passages of the source.

As to `Nc1nc2ccc(OC(F)(F)F)cc2s1` [riluzole, 6-(trifluoromethoxy)benzothiazol-2-amine], the survival is 176.0±4.2 (P-gp-/-::SOD1-G93A riluzole-treated mice) and 162.0±2.51 (SOD1-G93A riluzole-treated mice).

Source of the values: US11369596B2, “Methods of treating a neurodegenerative disease in a mammal in need thereof” (Thomas Jefferson University, priority 2013, dated 2022).
